# Source: publication PMC10579798
# No constants are given. Whether binding was seen depends on the method and setting. In cells and extracts the contact can be indirect. Binding can be weak; no strength is given. Sequences can lack the tags named with a protein.
# B1: HA-tagged Hipk (Drosophila homeodomain-interacting protein kinase) (enzyme, UniProt Q9W0Q1 1-1340)
# chain: MKTSYPPKASDFVDYAVAGGGGSGFCSGLGAGLSVRATSFYGDQTVTATTDGTRHQEQQQQQLQQQQQQHILRQPATSASTSSVAAAATSKRKRQTDCDCGCVDSYNSSHGPPVQQDSSAAAGAGSVGSKAGSGPGPDGIGPISSLKTAHTKVATSGGHANTQPPSKRSSSGADGDYQLVQHEVLYSLSAEYEVLEFLGRGTFGQVVKCWKRGTSEIVAIKILKNHPSYARQGQIEVSILSRLSQENADEFNFVRAFECFQHKNHTCLVFEMLEQNLYDFLKQNKFSPLPLKYIRPILEQVLTALLKLKQLGLIHADLKPENIMLVDPVRQPYRVKVIDFGSASHVSKTVCNTYLQSRYYRAPEIILGLPFCEAIDMWSLGCVVAELFLGWPLYPGSSEFDQIRYISQTQGLPTEHMLNSASKTSKFFYRDVDSTYPFWRLKTTEEHEAETNTKSKEARKYIFNCLDDIGQVNVPTDLEGGQLLAEKTDRREFIDLLKRMLTIDQERRLTPAEALNHSFTRLTHLVDYVYCNNVKASVQMMEVCRRGDFHTVQPASTLVTNFVPSSTENMTFTINNQLTSQVQRLVRDGRPLAYEGLYQIYNGRSVARQYPQTRTDSFQHQLVSNILCPPSYQTMPSPTKHVVVGSATMQPPLQVPPQQYVNVPVPVSMVEPTSGQRMLLTNRVQASGVAWPQTGRQMALVPSWPQQAPAHSLIVDSTPLFNVEEIYPKHHLNLPRNDLKKESPAHHIAKGNSYRVPRHEKKEHQQLSPVKKRVKESSPPHQQRYQRAAHVSPQYHAHHNCNYGNGSGYSASAGSVVASSAASSSNIVNGSSSSSHHHHVPVAHAQPYSSSSGHHIVSNCNANGGAGGAVVYQQPPAHAHQQHGQQPHPQSSQHPQHVKQPTITIHDTPSPTAVITISDSEDEGGEAGGAQVPVLKQRAHAQSQTSGSLLQHAPSSSCSRSSAHQQPHPHPQQQQQQQINYGDHDPEDARRRHHAAAAAAVGSPKHHHHQQQQQPAPPPQQQQQQYQPQPPPQQVLPQPQPSIKYEPGQSQKKRILAMAQSECGYQPQVPSQPSSSASLPHIPTKQEPAEFYPEYAAAPPQQLDTKRSSWAPTSSGSGVSALPLAHPKREAPSVAPISYVAPSVAPPLAHSKSSSASSSSSISAATAAAAAAAAAAAASVGPPSWGPPQVYRQPSQPPPGSVGLPGSTQPPPSSVAPHPHHHSHGHHHHQAGTPLGGSPSSTAAAALLQPDIYAQGDIYRRPTVFVSQAAPSYAYANRAVVAPPPAHNSSSRQVIPSHPLPAHIQIPTQYSQFGPLSPAQVAASKHAAHFAPTNIWYGAE
# Columns and labels:
# [1] = target: myc-tagged wild-type Sik2 (Drosophila salt-inducible kinase 2) (Drosophila) (UniProt Q9W532); assay: co-IP; reciprocal: protein extracts of dpp-Gal4 larvae co-expressing HA-Hipk and a myc-tagged Sik; precipitated with anti-myc antibody (Sik2) or myc agarose beads (Sik3), control IgG or control agarose, Western blot
# [2] = target: myc-tagged wild-type Sik3-PA (Drosophila salt-inducible kinase 3) (Drosophila); assay: as above
binder,measurement,setting,value
B1,binding,[1],binds
same,binding,[2],binds
